Results published in PubChem BioAssay AID588590 (National Center for Advancing Translational Sciences (NCATS), 2011).
Values joined by “and” are separate entries in the source; they are usually repeats but may differ in a detail not shown here. Equal entries are not always repeated. About 4,000 (1%) of roughly 390,000 compounds were called active. This list was built around the results that the source calls inconclusive (neither active nor inactive); the mix of calls is not that of the screen. Calls follow the shape of the dose curve; as a rule, active = well fitted inhibition curve with a large enough effect; inconclusive = small, poorly fitted or top-dose-only effect, or another doubt; inactive = no such curve, though single readings can be large or run the other way. A potency beside an inconclusive call is a rough fit, not a confirmed value.

By UniProt entry, the sequences of proteins in these tests, tags left out. Where a name states a change or a piece, a line headed by the entry shows the natural chain unless it says otherwise.
UniProt Q9UNA4: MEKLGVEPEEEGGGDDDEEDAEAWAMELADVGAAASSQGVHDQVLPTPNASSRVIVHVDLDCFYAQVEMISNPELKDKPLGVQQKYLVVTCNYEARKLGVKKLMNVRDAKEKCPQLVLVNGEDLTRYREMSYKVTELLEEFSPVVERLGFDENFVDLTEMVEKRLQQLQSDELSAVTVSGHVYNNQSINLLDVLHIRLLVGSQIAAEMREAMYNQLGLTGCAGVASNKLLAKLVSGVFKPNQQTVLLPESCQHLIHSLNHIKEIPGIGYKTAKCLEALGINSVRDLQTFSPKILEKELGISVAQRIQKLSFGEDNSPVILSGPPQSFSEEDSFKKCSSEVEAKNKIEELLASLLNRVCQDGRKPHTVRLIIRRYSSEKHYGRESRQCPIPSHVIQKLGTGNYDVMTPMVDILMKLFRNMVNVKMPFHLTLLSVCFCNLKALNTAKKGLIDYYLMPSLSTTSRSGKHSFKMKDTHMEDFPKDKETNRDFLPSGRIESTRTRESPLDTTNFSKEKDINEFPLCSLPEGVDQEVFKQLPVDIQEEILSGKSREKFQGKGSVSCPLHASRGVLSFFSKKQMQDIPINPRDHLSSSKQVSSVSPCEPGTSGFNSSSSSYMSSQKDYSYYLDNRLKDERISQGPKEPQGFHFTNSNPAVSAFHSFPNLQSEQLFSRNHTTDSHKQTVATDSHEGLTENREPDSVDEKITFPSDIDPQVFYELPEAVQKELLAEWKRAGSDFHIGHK

Biological target: DNA polymerase iota (Homo sapiens) (UniProt Q9UNA4)
Experiment: qHTS for Inhibitors of Polymerase Iota
Details: Pol iota fluorescent replication assay, 10 min; series mostly up to 115 µM
In short: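 Fluorescent replication assay read twice, at 0 min and 10 min after adding 50 nM (final) substrate. Enzyme (10 nM) and compounds were first incubated 15 min at room temperature; enzyme-free buffer wells were negative controls.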
Potency is read from the fitted curve at half-maximal effect.

SMILES	Potency
COc1ccc(Cl)cc1NC(=O)c1oc(C)nc1C	inconclusive: 20 µM [inhibitor, full curve]
CC(=O)N(c1ccc2oc(=O)sc2c1)S(=O)(=O)c1cccc2cccnc12	inconclusive: 2.82 µM [inhibitor, partial curve, poor fit]
CC(=O)c1ccc(NS(=O)(=O)c2ccc(C)cc2)cc1	inconclusive: 39.8 µM [inhibitor, single point]
COc1cc(C)cc(C(=O)C=Cc2ccccc2)c1O	inconclusive: 14.1 µM [inhibitor, partial curve]
CN(N=O)c1ccc(/C=C/c2ccccc2)cc1	inactive
COc1cccc(Cc2nc3ccccc3nc2SCC(=O)NCCc2ccccc2)c1	inactive
CCC(NC(C)C)C(O)c1ccc(O)c2[nH]c(=O)ccc12 (configuration not stated)	inconclusive: 15.8 µM [inhibitor, full curve, poor fit]
Cc1ccc(C(CCN(Cc2ccccc2)C(=O)c2ccco2)c2ccco2)cc1 (configuration not stated)	active: 20 µM
COC(=O)CCC(=O)OC1(C)C(=O)C2=CN(c3ccccc3)C(c3ccc(OC)cc3)=CC2=C(Br)C1=O (configuration not stated)	inconclusive: 35.5 µM [inhibitor, single point]
Fc1ccc(Br)cc1C1C=C(c2ccc(Br)s2)Nc2ncnn21 (configuration not stated)	inconclusive: 3.55 µM [inhibitor, full curve, poor fit]
CC(=O)Nc1ccc(Nc2nc3ccccc3nc2NS(=O)(=O)c2ccccc2)cc1	inconclusive: 7.08 µM [inhibitor, partial curve]
Cc1ccc(S(=O)(=O)Oc2ccc(C3C4=C(CCCC4=O)N(CCC(=O)O)C4=C3C(=O)CCC4)cc2Cl)cc1	inconclusive: 39.8 µM [inhibitor, partial curve]
CC1(C)CC(=O)C2=C(C1)OC(N)=C(C#N)C2c1cc2c(cc1[N+](=O)[O-])OCO2 (configuration not stated)	inconclusive: 22.4 µM [inhibitor, partial curve]
CCCCSc1nc(C)c(CC(=O)O)c(=O)[nH]1	inactive
COc1cc(C2C(C#N)=C(N)Oc3n[nH]c(-c4cccnc4)c32)cc(Br)c1O (configuration not stated)	inconclusive: 15.8 µM [inhibitor, partial curve, poor fit]
CNC(=S)NNC(=O)c1ccc(=O)n(Cc2ccc(Cl)cc2Cl)c1	inconclusive: 56.2 µM [inhibitor, partial curve, poor fit]
CCSc1nnc(NC(=O)CSc2nnc(Cc3cccn3C)n2CCc2ccccc2)s1	inconclusive: 25.1 µM [inhibitor, full curve, poor fit]
COc1ccc(Nc2oc(-c3ccc(COc4cccc(C)c4)o3)nc2C#N)cc1	inactive
COC(=O)CC1=C(C(=O)OC)[C@@H](c2ccccc2[N+](=O)[O-])C(C#N)=C(N)O1	inconclusive: 31.6 µM [inhibitor, single point]
COc1ccc(-c2nc3c(c(SCC(=O)Nc4cccc(O)c4)n2)Cc2c(CO)cnc(C)c2O3)cc1	active: 31.6 µM and active: 6.31 µM
CC1(C)OC(=O)C2(Cc3c(F)cccc3N3CCCC32)C(=O)O1 (configuration not stated)	inconclusive: 56.2 µM [inhibitor, partial curve, poor fit]

Sorted by heavy-atom count (ascending): twelve of the compounds above
SMILES	Potency
CCCCSc1nc(C)c(CC(=O)O)c(=O)[nH]1	inactive
CN(N=O)c1ccc(/C=C/c2ccccc2)cc1	inactive
COc1ccc(Cl)cc1NC(=O)c1oc(C)nc1C	inconclusive: 20 µM [inhibitor, full curve]
COc1cc(C)cc(C(=O)C=Cc2ccccc2)c1O	inconclusive: 14.1 µM [inhibitor, partial curve]
CCC(NC(C)C)C(O)c1ccc(O)c2[nH]c(=O)ccc12 (configuration not stated)	inconclusive: 15.8 µM [inhibitor, full curve, poor fit]
Fc1ccc(Br)cc1C1C=C(c2ccc(Br)s2)Nc2ncnn21 (configuration not stated)	inconclusive: 3.55 µM [inhibitor, full curve, poor fit]
CNC(=S)NNC(=O)c1ccc(=O)n(Cc2ccc(Cl)cc2Cl)c1	inconclusive: 56.2 µM [inhibitor, partial curve, poor fit]
CC(=O)N(c1ccc2oc(=O)sc2c1)S(=O)(=O)c1cccc2cccnc12	inconclusive: 2.82 µM [inhibitor, partial curve, poor fit]
CC1(C)CC(=O)C2=C(C1)OC(N)=C(C#N)C2c1cc2c(cc1[N+](=O)[O-])OCO2 (configuration not stated)	inconclusive: 22.4 µM [inhibitor, partial curve]
COc1ccc(Nc2oc(-c3ccc(COc4cccc(C)c4)o3)nc2C#N)cc1	inactive
CCSc1nnc(NC(=O)CSc2nnc(Cc3cccn3C)n2CCc2ccccc2)s1	inconclusive: 25.1 µM [inhibitor, full curve, poor fit]
COC(=O)CCC(=O)OC1(C)C(=O)C2=CN(c3ccccc3)C(c3ccc(OC)cc3)=CC2=C(Br)C1=O (configuration not stated)	inconclusive: 35.5 µM [inhibitor, single point]

Carrying on:

SMILES	Potency
CC1=C(CO)C(=O)OC([C@@H](C)C2CC[C@H]3C4C[C@H]5O[C@]56[C@@H](O)C=CC(=O)[C@]6(C)C4CC[C@]23C)C1 (some centres not stated)	inconclusive: 12.6 µM [inhibitor, full curve, poor fit]
O=C(Nc1cc(Cl)ccc1Cl)c1cc(S(=O)(=O)NCCc2ccccc2)ccc1F	inactive
COc1cccc(NC(=O)CN(C)C(=O)C2CC(=O)N(CCc3ccc(OC)c(OC)c3)C2)c1 (configuration not stated)	inconclusive: 79.4 µM [inhibitor, partial curve]
O=C(c1ccc(F)cc1)C(CN1CCOCC1)c1ccccc1 (configuration not stated)	inconclusive: 25.1 µM [inhibitor, full curve]
COc1ccc(-c2cn3cccnc3n2)cc1NC(=O)c1c(F)cccc1F	inactive
CSCc1nnc(NC(=O)c2ccc(S(=O)(=O)N(C)C)cc2)o1	inconclusive: 14.1 µM [inhibitor, partial curve, poor fit]
Cc1cccc(CCNC(=O)CCS(=O)(=O)c2cc3c(cc2Cl)NC(=O)CO3)c1	inconclusive: 0.708 µM [inhibitor, full curve, poor fit]
C[C@H]1CN=C(N(C)C)N1CCc1cccc(F)c1	inconclusive: 39.8 µM [inhibitor, single point]
CC(=O)Nc1ccc(NS(=O)(=O)c2cc(-c3n[nH]c(=O)c4ccccc34)ccc2C)cc1	inconclusive: 7.08 µM [inhibitor, partial curve, poor fit]
Cc1c(-c2cccc(Cl)c2)nc2ccccc2c1C(=O)OC/C(O)=C(\C#N)c1nc2ccccc2[nH]1	inconclusive: 31.6 µM [inhibitor, partial curve, poor fit]
Fc1cccc(/C=N/Nc2nccnc2Cl)c1	inactive
COc1ccccc1C(=O)Nc1ccc2nc(N3CCC(C)CC3)cc(C)c2c1	inactive
COc1cccc(C(=O)C2CCCN(CC3=Cc4cc(OC)ccc4OC3)C2)c1 (configuration not stated)	inconclusive: 56.2 µM [inhibitor, partial curve, poor fit]
CCCOc1ccccc1C1NC(=O)NC(C)=C1C(=O)OCc1ccccc1 (configuration not stated)	inconclusive: 56.2 µM [inhibitor, partial curve, poor fit]
CCOc1cc(C2C(C(=O)OC)=CN(Cc3ccc(Cl)cc3)C=C2C(=O)OC)ccc1O	inconclusive: 39.8 µM [inhibitor, partial curve, poor fit]
COCCn1c(SCC(=O)/C=C2\N(C)c3ccccc3C2(C)C)nnc1-c1ccncc1	inconclusive: 44.7 µM [inhibitor, partial curve, poor fit]
CC(=O)Nc1c2c(nn1-c1ccc(C)cc1)CSC2	inconclusive: 39.8 µM [inhibitor, single point]
CN(CC(=O)Nc1c(Cl)cccc1Cl)C(=O)c1ccc2nc[nH]c2c1	inconclusive: 28.2 µM [inhibitor, single point]
COc1cc2cc(-c3ccc(O)cc3O)nc(C)c2cc1OC	inconclusive: 39.8 µM [inhibitor, partial curve, poor fit]
Cc1ccc(S(=O)(=O)N2[C@@H](c3ccc(C(C)(C)C)cc3)C(C(=O)O)=CC[C@H]2c2ccc(Cl)cc2)cc1	inconclusive: 39.8 µM [inhibitor, partial curve, poor fit]
COc1ccc(C(=O)c2ccc(Br)cc2)cc1	inconclusive: 89.1 µM [inhibitor, partial curve, poor fit]

SMILES	Potency
CCc1nn(CC(=O)NCCC(C)C)c(=O)c2cc3occc3n12	inactive
CCCn1c(S(=O)(=O)O)nc2ccccc21	inconclusive: 28.2 µM [inhibitor, partial curve, poor fit]
Oc1ccc(Cl)cc1C1C=C(c2ccc3c(c2)OCO3)NC(c2ccc(Br)cc2)N1 (configuration not stated)	inactive
CC1(C)S[C@@H]2[C@H](NC(=O)[C@H](N)c3ccccc3)C(=O)N2[C@H]1C(=O)O	active: 28.2 µM
COc1ccc(NS(=O)(=O)c2ccc3c(c2)C(C(C)C)C(=O)N3)cc1 (configuration not stated)	inconclusive: 89.1 µM [inhibitor, partial curve, poor fit]
Cc1ccc(CNC(=O)CSc2ncc(S(=O)(=O)c3ccc(Br)cc3)c(=O)[nH]2)cc1	inconclusive: 89.1 µM [inhibitor, partial curve]
Cc1occc1C(=O)Nc1cccc(C(=O)O)c1	inconclusive: 56.2 µM [inhibitor, partial curve, poor fit]
CS(=O)(=O)c1nc2c(cc1C#N)CCCC2	inconclusive: 100 µM [inhibitor, partial curve, poor fit]
Cc1noc(C)c1S(=O)(=O)Nc1ccc(C(=O)Nc2ccc(OC(F)(F)F)cc2)cc1	inactive
CCN(CC(=O)NCc1cccs1)C(=O)c1ccc(-c2ccccc2F)o1	inactive
O=C(CSc1nnc(-c2cccnc2)n1C1CCCCC1)NC1CCCC1	inconclusive: 70.8 µM [inhibitor, single point]
N#Cc1ccccc1OCC(=O)NC(=O)NCc1ccco1	inconclusive: 12.6 µM [inhibitor, partial curve, poor fit]
Cc1ccc(NCc2ccc(O)c3ncccc23)cc1	inactive
CC1=NN(C(=O)Cc2ccc([N+](=O)[O-])cc2)C(O)(c2ccccc2)C1 (configuration not stated)	inconclusive: 89.1 µM [inhibitor, partial curve, poor fit]
O=C(OCc1cc(=O)n2ccsc2n1)C1(c2ccc(Cl)cc2)CC1	inconclusive: 31.6 µM [inhibitor, partial curve, poor fit]
COc1cc(CNCc2ccc(Br)cc2)cc(OC)c1	inconclusive: 11.2 µM [inhibitor, partial curve, poor fit]
CCCCNC(=O)CSc1nc2cc3c(cc2c(=O)n1CCCC(=O)NCc1ccc2c(c1)OCO2)OCO3	active: 89.1 µM
CCOC(=O)c1cc2c(=O)n3cccc(C)c3nc2n(CCOC)c1=NC(C)=O	inconclusive: 56.2 µM [inhibitor, partial curve, poor fit]
O=C(O)c1c(F)c(F)c(F)c(F)c1-c1ccc(Cl)cc1	inconclusive: 112 µM [inhibitor, partial curve, poor fit]
Cc1nc(SCC(=O)N(CC(C)C)C2CCS(=O)(=O)C2)c(C#N)c(C)c1C (configuration not stated)	inactive
